# Experimental data taken from the supplement of paper PMC11006884.
# The chains behind the UniProt entries cited, without tags or fusion partners. Where a name states a change or a piece, a line headed by the entry shows the natural chain unless it says otherwise.
# UniProt Q6FI81: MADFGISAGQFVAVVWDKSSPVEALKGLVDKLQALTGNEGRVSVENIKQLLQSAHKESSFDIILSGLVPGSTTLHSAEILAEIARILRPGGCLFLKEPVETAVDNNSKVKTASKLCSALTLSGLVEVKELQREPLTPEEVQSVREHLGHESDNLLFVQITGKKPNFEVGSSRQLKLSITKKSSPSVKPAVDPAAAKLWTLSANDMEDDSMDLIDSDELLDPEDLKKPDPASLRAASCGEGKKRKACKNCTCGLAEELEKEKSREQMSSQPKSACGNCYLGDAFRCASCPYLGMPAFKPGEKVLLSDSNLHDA
# UniProt Q6P4Q7: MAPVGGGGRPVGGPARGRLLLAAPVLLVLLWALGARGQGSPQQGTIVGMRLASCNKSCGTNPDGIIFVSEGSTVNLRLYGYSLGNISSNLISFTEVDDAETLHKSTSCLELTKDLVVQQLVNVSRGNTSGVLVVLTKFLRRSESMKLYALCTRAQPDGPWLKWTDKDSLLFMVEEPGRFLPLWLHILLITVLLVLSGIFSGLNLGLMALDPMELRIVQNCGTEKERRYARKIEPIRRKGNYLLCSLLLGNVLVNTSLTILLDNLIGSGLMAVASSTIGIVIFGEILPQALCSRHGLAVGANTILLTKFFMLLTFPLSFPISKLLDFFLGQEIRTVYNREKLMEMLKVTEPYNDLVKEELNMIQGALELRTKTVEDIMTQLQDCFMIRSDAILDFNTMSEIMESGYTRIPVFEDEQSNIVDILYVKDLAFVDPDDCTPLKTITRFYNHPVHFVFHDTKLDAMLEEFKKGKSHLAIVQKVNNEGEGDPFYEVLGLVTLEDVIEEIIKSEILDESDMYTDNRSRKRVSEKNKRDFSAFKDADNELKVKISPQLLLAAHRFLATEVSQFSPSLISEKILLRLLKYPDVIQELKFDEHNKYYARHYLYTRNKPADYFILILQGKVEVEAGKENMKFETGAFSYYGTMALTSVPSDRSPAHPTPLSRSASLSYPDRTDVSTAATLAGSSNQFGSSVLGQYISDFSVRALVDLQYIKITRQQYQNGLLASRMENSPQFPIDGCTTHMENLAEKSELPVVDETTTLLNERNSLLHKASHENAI
# UniProt Q6P158: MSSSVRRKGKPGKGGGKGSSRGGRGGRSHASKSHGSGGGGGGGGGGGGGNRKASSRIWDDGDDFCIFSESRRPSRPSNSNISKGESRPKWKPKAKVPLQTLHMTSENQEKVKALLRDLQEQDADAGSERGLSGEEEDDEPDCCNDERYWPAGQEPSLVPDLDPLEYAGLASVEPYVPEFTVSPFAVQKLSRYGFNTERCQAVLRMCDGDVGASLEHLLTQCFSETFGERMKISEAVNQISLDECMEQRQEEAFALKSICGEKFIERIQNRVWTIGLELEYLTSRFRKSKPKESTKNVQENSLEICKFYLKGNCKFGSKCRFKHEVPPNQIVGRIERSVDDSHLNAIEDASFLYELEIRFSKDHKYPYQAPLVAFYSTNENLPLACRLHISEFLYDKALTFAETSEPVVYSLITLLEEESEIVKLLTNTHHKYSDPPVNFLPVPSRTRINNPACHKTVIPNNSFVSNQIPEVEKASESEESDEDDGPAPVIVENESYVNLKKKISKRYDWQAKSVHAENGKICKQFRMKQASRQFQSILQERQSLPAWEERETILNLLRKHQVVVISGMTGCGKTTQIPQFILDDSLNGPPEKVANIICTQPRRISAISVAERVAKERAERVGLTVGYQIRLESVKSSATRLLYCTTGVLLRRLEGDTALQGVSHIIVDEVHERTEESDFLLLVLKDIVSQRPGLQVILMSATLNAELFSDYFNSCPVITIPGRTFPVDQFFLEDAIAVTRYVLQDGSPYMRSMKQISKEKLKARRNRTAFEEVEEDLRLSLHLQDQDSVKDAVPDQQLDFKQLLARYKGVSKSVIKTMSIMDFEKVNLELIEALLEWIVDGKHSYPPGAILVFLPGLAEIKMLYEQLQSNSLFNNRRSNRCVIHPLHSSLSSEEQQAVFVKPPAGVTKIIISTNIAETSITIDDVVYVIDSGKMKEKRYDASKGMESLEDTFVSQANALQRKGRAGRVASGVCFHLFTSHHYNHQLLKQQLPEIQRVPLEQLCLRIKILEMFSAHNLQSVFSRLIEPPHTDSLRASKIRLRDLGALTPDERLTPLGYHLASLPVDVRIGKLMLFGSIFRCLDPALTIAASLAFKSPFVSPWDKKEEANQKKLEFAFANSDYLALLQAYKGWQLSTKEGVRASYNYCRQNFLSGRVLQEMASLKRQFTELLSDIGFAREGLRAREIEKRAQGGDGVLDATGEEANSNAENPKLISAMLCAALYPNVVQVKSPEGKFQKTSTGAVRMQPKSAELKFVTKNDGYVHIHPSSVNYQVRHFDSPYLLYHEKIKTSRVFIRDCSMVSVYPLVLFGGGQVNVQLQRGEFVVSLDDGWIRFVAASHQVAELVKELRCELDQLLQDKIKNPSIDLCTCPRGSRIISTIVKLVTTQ
# UniProt Q6Y7W6: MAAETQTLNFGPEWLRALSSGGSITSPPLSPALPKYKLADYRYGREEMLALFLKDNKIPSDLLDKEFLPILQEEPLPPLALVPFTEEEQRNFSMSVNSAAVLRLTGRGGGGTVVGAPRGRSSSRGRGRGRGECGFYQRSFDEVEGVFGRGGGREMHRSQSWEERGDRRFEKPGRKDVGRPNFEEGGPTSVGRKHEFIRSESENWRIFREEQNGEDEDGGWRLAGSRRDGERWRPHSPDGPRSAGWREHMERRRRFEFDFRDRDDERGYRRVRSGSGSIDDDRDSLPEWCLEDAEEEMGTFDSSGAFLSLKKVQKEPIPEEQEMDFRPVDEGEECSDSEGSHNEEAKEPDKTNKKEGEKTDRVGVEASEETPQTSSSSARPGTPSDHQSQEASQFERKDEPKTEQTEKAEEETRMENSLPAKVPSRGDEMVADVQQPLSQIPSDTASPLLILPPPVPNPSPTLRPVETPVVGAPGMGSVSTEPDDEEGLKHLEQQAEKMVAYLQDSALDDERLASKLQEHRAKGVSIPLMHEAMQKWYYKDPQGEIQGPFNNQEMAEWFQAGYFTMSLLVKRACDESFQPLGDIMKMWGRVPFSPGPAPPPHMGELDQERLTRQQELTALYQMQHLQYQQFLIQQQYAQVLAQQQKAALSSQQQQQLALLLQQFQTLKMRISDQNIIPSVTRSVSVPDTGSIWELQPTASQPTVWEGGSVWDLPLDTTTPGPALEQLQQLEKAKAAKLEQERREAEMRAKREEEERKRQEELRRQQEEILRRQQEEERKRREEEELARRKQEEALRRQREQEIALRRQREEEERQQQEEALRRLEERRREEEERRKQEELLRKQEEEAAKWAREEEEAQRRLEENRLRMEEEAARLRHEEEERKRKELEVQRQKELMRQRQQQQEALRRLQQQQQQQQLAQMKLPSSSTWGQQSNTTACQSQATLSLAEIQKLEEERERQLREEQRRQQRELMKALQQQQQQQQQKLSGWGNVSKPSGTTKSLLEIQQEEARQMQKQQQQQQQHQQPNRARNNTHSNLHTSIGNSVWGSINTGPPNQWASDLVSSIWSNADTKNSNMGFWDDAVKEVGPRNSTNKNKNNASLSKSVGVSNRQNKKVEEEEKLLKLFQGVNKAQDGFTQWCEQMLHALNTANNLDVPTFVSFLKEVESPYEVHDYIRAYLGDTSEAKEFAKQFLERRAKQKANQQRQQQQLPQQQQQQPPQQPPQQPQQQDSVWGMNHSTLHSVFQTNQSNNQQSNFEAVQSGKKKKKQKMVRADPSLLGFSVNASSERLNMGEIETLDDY
# UniProt Q6PJG6: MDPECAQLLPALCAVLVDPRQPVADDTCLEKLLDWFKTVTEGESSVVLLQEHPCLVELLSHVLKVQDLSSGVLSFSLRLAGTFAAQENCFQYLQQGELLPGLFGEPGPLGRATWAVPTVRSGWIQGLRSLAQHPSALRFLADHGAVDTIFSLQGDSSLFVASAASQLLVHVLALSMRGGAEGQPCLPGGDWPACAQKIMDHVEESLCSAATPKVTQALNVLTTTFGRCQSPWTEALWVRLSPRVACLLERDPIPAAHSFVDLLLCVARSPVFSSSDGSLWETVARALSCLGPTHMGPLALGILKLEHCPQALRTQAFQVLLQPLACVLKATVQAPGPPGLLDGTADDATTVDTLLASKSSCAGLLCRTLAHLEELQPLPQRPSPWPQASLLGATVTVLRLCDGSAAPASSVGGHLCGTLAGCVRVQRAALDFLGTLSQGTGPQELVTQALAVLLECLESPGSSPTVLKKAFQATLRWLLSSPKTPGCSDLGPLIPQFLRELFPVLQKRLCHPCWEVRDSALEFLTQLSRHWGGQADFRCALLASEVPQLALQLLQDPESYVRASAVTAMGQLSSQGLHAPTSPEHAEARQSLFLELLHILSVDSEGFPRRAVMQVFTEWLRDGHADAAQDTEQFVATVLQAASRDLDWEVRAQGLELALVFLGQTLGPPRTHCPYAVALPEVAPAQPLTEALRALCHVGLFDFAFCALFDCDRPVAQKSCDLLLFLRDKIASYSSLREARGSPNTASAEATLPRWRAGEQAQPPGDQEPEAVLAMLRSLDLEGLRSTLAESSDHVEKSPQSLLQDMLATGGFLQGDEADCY
# UniProt Q5T6F2: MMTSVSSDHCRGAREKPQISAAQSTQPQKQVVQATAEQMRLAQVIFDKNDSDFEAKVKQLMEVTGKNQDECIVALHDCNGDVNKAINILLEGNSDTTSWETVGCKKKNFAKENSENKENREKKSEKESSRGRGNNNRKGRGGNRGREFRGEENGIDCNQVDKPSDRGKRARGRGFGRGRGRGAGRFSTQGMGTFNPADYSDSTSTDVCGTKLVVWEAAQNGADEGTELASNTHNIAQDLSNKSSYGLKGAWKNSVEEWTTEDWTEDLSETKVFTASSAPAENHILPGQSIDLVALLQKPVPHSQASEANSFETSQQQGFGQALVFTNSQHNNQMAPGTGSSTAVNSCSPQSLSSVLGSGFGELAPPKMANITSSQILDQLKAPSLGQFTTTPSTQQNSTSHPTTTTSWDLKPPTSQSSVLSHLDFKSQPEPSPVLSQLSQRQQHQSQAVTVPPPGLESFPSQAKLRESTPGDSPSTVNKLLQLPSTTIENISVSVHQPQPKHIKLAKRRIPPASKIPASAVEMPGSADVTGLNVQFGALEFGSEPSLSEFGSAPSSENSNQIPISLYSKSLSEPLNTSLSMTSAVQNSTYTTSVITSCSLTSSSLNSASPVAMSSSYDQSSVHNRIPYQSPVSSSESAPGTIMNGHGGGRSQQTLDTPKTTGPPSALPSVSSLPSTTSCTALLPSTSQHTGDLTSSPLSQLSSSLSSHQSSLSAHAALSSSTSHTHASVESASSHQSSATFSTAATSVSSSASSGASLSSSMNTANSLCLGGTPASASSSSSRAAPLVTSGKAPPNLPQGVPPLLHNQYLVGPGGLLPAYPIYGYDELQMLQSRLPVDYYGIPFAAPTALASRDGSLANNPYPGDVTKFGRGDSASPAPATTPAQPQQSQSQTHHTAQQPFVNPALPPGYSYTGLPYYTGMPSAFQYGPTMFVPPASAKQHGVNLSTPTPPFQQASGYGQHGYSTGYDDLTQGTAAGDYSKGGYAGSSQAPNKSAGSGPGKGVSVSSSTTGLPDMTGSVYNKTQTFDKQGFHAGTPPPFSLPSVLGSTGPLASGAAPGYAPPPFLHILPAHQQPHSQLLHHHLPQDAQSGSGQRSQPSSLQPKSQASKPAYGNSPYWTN
# UniProt Q5W5X9: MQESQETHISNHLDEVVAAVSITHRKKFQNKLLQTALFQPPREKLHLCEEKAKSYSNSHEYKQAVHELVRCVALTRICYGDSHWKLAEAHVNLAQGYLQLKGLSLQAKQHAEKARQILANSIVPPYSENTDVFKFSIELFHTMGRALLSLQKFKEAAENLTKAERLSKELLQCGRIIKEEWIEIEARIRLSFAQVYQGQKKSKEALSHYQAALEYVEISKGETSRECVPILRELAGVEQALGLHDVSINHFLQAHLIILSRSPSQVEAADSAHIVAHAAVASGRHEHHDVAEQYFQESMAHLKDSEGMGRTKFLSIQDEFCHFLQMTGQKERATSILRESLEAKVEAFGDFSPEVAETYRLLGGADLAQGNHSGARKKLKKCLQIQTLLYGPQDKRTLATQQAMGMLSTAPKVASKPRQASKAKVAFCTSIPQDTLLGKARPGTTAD
# UniProt Q6ZSJ8: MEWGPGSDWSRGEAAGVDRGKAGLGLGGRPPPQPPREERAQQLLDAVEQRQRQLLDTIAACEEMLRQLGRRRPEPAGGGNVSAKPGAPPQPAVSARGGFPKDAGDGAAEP
# The list shows a part of the results, in another mix than the full data.
# Compound: COC(=O)C#Cc1ccccc1 [methyl 3-phenylpropiolate]
# Experiment: log2 ratio of iodoacetamide-alkyne labeling of the cysteine site, DMSO over compound (competition); higher = stronger covalent engagement of the cysteine by the compound, active = 1 or more
# Conditions: 500 µM; treatment time 1 h; system: HEK293T cell lysate
# How it was run: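 For each cysteine, the log2 competition ratio is mean control-channel reporter intensity over mean compound-channel reporter intensity. HEK293T lysate (2 mg/mL) was exposed to vehicle or electrophile (500 µM, 1 h, ambient temperature), labelled with iodoacetamide alkyne (1 h), clicked to sCIP-TMT reagents, digested overnight with trypsin at 37 °C, streptavidin-enriched and analysed by Orbitrap Eclipse LC-MS/MS with FAIMS and FragPipe. Cysteines quantified in only one of three replicates, each with duplicate channels, were excluded.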
row,Target,log2 ratio of iodoacetamide-alkyne labeling
1,PRPF8 C772 (UniProt Q6P2Q9),inactive: 0.151
2,CIAPIN1 C237 (UniProt Q6FI81),inactive: 0.938
3,UniProt Q5JTC6_C1060,inactive: 0.46
4,WDR73 C375 (UniProt Q6P4I2),inactive: 0.0504
5,CNNM4 C736 (UniProt Q6P4Q7),inactive: 0.328
6,ZMYM4 C1499 (UniProt Q5VZL5),inactive: 0.221
7,DHX57 C65 (UniProt Q6P158),inactive: 0.72
8,GIGYF2 C289 (UniProt Q6Y7W6),inactive: -0.00206
9,DENND4C C955 (UniProt Q5VZ89),inactive: 0.32
10,ACBD5 C170 (UniProt Q5T8D3),inactive: 0.29
11,MTHFD1L C906 (UniProt Q6UB35),inactive: -0.336
12,GIGYF2 C938 (UniProt Q6Y7W6),inactive: 0.268
13,NFXL1 C212 (UniProt Q6ZNB6),inactive: -0.0301
14,HIST2H3A C111 (UniProt Q71DI3),inactive: 0.0441
15,EDC4 C81 (UniProt Q6P2E9),inactive: 0.664
16,EDC4 C4 (UniProt Q6P2E9),inactive: 0.2
17,TAPT1 C562 (UniProt Q6NXT6),inactive: 0.285
18,UniProt Q5VSL9_C418,active: 1.22
19,HERC4 C60 (UniProt Q5GLZ8),inactive: 0.254

# An excerpt of these results, tab-delimited:
row	Target	log2 ratio of iodoacetamide-alkyne labeling
1	PRPF8 C772 (UniProt Q6P2Q9)	inactive: 0.151
3	UniProt Q5JTC6_C1060	inactive: 0.46
8	GIGYF2 C289 (UniProt Q6Y7W6)	inactive: -0.00206
12	GIGYF2 C938 (UniProt Q6Y7W6)	inactive: 0.268
14	HIST2H3A C111 (UniProt Q71DI3)	inactive: 0.0441
17	TAPT1 C562 (UniProt Q6NXT6)	inactive: 0.285

# Additional records

row,Target,log2 ratio of iodoacetamide-alkyne labeling
1,RIF1 C1077 (UniProt Q5UIP0),inactive: 0.458
2,RIF1 C2169 (UniProt Q5UIP0),inactive: 0.479
3,ATAD2 C1246 (UniProt Q6PL18),inactive: 0.525
4,UniProt Q5JSZ5_C1610,inactive: 0.32
5,UniProt Q6PJG6_C487,inactive: 0.394
6,UBAP2 C208 (UniProt Q5T6F2),inactive: 0.387
7,UniProt Q6P1J9_C397,inactive: 0.0744
8,NUP188 C95 (UniProt Q5SRE5),inactive: -0.0589
9,UniProt Q5W5X9_C428,inactive: 0.549
10,LARP1 C502 (UniProt Q6PKG0),inactive: 0.269
11,RARS2 C74 (UniProt Q5T160),inactive: 0.222
12,TMEM201 C626 (UniProt Q5SNT2),inactive: 0.697
13,NFXL1 C528 (UniProt Q6ZNB6),inactive: -0.174
14,DOCK11 C592 (UniProt Q5JSL3),inactive: -0.217
15,TBC1D9B C444 (UniProt Q66K14),inactive: 0.39
16,C1orf122 C61 (UniProt Q6ZSJ8),inactive: 0.107
17,PITRM1 C556 (UniProt Q5JRX3),inactive: 0.0671
18,MTHFD1L C291 (UniProt Q6UB35),inactive: 0.126
